Test results from PMC10112799.
Results are given in words; binding and its absence hold for the method and conditions named. For some assays here: Binding can be weak; no strength is given. For some assays here: Binding seen in cells or lysates may run through a third protein.

Amino acid sequences for entries named in this document (tags omitted). A change or cut given only in a name is not applied to a line headed by its entry.
UniProt O60603: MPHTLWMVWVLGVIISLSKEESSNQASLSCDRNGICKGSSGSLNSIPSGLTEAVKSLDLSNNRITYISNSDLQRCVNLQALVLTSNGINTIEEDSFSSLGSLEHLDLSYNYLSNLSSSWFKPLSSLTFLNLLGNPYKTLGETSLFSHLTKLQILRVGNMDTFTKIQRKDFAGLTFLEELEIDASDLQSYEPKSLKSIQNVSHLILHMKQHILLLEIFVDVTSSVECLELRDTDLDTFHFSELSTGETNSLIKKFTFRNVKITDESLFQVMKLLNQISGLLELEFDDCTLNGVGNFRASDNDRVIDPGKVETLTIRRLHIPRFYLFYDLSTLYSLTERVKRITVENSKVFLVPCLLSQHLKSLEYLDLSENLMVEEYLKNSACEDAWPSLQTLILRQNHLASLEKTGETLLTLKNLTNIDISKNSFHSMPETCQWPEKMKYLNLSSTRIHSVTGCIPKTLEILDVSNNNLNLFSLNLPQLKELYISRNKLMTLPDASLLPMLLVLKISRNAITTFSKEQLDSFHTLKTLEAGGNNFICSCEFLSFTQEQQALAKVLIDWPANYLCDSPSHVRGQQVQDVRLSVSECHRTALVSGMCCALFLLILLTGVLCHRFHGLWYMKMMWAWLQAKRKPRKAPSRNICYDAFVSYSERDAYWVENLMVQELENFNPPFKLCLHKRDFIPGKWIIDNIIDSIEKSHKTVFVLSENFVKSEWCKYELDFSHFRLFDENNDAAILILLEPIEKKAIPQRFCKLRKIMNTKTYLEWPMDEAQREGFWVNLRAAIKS
UniProt P18206: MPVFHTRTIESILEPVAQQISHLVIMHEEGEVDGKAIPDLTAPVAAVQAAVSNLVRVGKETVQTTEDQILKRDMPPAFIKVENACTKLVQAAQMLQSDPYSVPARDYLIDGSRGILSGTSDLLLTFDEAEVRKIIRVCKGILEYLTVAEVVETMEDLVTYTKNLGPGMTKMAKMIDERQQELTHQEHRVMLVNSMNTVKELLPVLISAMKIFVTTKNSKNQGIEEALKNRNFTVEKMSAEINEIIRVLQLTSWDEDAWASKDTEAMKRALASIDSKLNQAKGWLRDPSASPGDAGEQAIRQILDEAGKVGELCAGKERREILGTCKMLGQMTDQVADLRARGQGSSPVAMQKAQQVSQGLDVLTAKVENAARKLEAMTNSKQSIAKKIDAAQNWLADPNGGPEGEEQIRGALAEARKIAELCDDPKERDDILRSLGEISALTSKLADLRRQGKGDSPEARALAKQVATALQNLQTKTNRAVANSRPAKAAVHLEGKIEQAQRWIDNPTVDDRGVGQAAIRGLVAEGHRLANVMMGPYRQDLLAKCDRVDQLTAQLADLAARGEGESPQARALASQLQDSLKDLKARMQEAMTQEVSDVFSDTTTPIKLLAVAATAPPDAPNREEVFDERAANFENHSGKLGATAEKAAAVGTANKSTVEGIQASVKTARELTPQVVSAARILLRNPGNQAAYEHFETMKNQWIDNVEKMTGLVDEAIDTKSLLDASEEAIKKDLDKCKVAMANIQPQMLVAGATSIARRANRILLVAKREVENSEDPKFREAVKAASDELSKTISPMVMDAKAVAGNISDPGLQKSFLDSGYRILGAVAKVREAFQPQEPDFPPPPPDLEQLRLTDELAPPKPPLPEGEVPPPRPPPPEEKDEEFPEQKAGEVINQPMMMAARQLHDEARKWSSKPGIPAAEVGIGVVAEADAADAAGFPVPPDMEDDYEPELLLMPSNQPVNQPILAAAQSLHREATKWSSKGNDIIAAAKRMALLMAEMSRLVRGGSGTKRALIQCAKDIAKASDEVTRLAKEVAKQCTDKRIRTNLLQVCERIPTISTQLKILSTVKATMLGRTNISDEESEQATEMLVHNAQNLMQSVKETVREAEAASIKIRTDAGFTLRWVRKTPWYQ
UniProt P27986: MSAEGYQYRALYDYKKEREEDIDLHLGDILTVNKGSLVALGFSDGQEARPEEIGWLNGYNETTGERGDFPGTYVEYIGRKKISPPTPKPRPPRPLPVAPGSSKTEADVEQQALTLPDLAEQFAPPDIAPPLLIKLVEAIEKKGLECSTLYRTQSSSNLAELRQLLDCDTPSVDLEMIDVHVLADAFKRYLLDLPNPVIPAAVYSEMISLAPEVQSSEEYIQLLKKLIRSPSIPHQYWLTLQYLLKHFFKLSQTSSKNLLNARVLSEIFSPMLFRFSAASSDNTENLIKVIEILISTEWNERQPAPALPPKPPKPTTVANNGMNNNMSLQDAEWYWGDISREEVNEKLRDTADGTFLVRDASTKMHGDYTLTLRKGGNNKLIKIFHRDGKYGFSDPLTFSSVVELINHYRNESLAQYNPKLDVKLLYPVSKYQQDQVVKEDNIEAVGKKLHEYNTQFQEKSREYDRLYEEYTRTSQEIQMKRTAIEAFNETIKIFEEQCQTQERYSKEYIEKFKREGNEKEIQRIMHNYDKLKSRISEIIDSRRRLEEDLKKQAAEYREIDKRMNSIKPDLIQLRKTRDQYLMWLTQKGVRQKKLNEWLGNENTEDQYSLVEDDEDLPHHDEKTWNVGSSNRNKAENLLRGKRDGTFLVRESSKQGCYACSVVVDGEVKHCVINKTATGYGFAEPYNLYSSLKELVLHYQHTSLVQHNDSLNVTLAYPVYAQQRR

How the values were obtained:
[1] = target: TLR2-Cub-TF bait (wild type) (UniProt O60603); test: two-hybrid; Mammalian Membrane Two-Hybrid (MaMTH, split ubiquitin); TLR2-Cub-TF bait and Nub preys co-transfected in HEK293T 5xGAL4UAS-luciferase reporter cells; untreated, PAM, or P. gingivalis MOI 10 for 8 h; luciferase read-out
[2] = target: Toll-Like Receptor 2 (TLR2), native (human (endogenous in THP1 and in primary human macrophages)) (UniProt O60603); test: co-IP; THP1 macrophages, control or infected with P. gingivalis MOI 10 for 30 min, cross-linked with DSP; TLR2 immunoprecipitated, eluates (glycine pH 2.5) immunoblotted for VCL
[3] = target: Toll-Like Receptor 2 (TLR2), native (human (endogenous in THP1 and in primary human macrophages)) (UniProt O60603); test: co-IP; primary human PBMC-derived macrophages, control or infected with P. gingivalis MOI 10 for 30 min, cross-linked with DSP; TLR2 immunoprecipitated, boiled beads immunoblotted for VCL
[4] = target: Toll-Like Receptor 2 (TLR2), native (human (endogenous in THP1 and in primary human macrophages)) (UniProt O60603); test: co-IP; differentiated THP1 cells stimulated with P. gingivalis MOI 10 for the indicated times, no DSP cross-linker; TLR2 immunoprecipitated, eluates immunoblotted for VCL and TLR2
[5] = target: Vinculin (VCL), endogenous (human (endogenous in THP1 and in primary human macrophages)) (UniProt P18206); test: co-IP; differentiated THP1 macrophages at steady state (not infected); VCL immunoprecipitated, eluates immunoblotted for PI3K p85α

Substance: VCL-Nub prey (from UniProt P18206-2)
- binding [1]: binds

Substance: Vinculin (VCL), endogenous (from UniProt P18206-2)
- binding [2]: binds
- binding [3]: binds
- binding [4]: no binding (only without the DSP cross-linker)

Substance: PI3K p85α, endogenous (from UniProt P27986 1-724)
- binding [5]: binds
